In all, about 33,000 sequences were measured (“E-score (-0.5 to 0.5)”: median about -0.0034, highest 2% from about 0.25 on). Some of the results follow.
Target: T1, Yap3 (UniProt P38749)
T1 sequence: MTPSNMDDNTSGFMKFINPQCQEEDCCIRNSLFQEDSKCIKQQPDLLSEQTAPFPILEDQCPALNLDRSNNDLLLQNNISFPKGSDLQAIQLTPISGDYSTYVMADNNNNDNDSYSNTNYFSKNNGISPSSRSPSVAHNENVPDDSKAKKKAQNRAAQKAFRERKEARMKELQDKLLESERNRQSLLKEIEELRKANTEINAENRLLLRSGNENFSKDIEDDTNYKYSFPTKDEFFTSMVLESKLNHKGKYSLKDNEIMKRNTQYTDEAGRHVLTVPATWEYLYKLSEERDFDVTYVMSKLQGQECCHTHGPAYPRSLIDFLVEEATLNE
Experiment: PBM E-score (8-mer binding enrichment) (E-score (-0.5 to 0.5)); higher = stronger / more preferred TF binding
Details: protein concentration: 100 nM; construct: GST-full length
Outline: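 Universal all-10-mer Agilent arrays, double-stranded by primer extension on fresh or once-stripped slides, were probed with about 100-200 nM GST-tagged yeast transcription factors made by PURExpress. Fluorescent anti-GST detected bound protein, and masliner normalised the scans. E-scores from the Universal PBM Analysis Suite were given to each ungapped eight-base word pooled with its reverse complement.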

Going from AGGAATCC to ATCGGGTA, the “PBM E-score” value rises from -0.205 to -0.101.

Going from TACATCGA to CTTACGCC, the “PBM E-score” value rises from 0.0238 to 0.086.

First: ACGCTGAC
Second: GCCTAAAA
The “PBM E-score” value of the first is higher: -0.00494 for the first, -0.0144 for the second.

First: CCTGCGCA
Second: GTACCAAC
The “PBM E-score” value of the first is lower: -0.158 for the first, 0.144 for the second.

Compared with ATCGAAAC, CAGGCCCA is lower in “PBM E-score” value: -0.00841 for the first, -0.2 for the second.

Compared with ACAGCTAT, CCGTCCTA is lower in “PBM E-score” value: -0.0451 for the first, -0.0795 for the second.

Compared with CAGTGACG, GCTGTTAA is higher in “PBM E-score” value: -0.0475 for the first, 0.0906 for the second.

Going from ACGCGTTG to AATCGAGT, the “PBM E-score” value rises from -0.027 to -0.0115.

First: CATACATA
Second: AAGGTCCT
The “PBM E-score” value of the first is higher: 0.21 for the first, -0.173 for the second.

Going from AGACAGGC to ATACACGA, the “PBM E-score” value rises from -0.158 to 0.0474.

First: AGTGTTCG
Second: AATAACGA
The “PBM E-score” value of the first is lower: 0.0439 for the first, 0.166 for the second.

Going from CGATACCC to CGTGCACG, the “PBM E-score” value rises from -0.111 to 0.0737.

Going from CTACCACC to GTGACCCA, the “PBM E-score” value rises from -0.228 to -0.167.

Going from ATCCGCGG to CCACCACC, the “PBM E-score” value falls from 0.0321 to -0.212.

First: AATTGAAT
Second: CGACCACC
The “PBM E-score” value of the first is higher: 0.191 for the first, -0.11 for the second.

First: ATAATAGA
Second: GATGTTTA
The “PBM E-score” value of the first is higher: 0.184 for the first, 0.055 for the second.

Compared with CACAGACC, GCATCAGC is lower in “PBM E-score” value: 0.182 for the first, -0.0511 for the second.

Going from TAGCATCA to TCCCAAAA, the “PBM E-score” value falls from 0.192 to 0.0977.

Going from AATCTAGC to CTCCGTTC, the “PBM E-score” value rises from -0.0397 to -0.0153.

Compared with ACGGCCAA, AGCAACTC is lower in “PBM E-score” value: 0.104 for the first, -0.00764 for the second.

Going from CGTCTCGC to AATCTGAA, the “PBM E-score” value rises from -0.0754 to 0.106.

First: CAAGCAGG
Second: ATTTATCC
The “PBM E-score” value of the first is lower: -0.136 for the first, 0.199 for the second.

Going from AGAACCCG to TAAAATTA, the “PBM E-score” value rises from -0.153 to 0.28.

First: CCTTACGA
Second: ATCTCTAA
The “PBM E-score” value of the first is lower: 0.0364 for the first, 0.0664 for the second.

Going from TCATAACA to GGCGTGGA, the “PBM E-score” value falls from 0.182 to -0.165.

Going from ACAGATCA to CACTCTCA, the “PBM E-score” value falls from 0.151 to 0.0588.

Compared with GAAATTAA, CACATAGA is lower in “PBM E-score” value: 0.342 for the first, -0.0005 for the second.

First: TCTCACAA
Second: AAAGGCTC
The “PBM E-score” value of the first is higher: 0.225 for the first, -0.273 for the second.

First: ACCTCTTA
Second: CAGTTGGA
The “PBM E-score” value of the first is higher: 0.176 for the first, -0.0132 for the second.

First: GACTATCA
Second: CGTCGATA
The “PBM E-score” value of the first is lower: -0.0199 for the first, 0.0961 for the second.

Going from ATCAAAAC to CTGATTCA, the “PBM E-score” value falls from 0.101 to 0.0545.

Going from GGAAGTCC to GATGTAGC, the “PBM E-score” value rises from -0.203 to -0.183.

First: ATCAGACC
Second: AATATGCA
The “PBM E-score” value of the first is lower: -0.0796 for the first, 0.0838 for the second.

Going from AATGAGCT to ATCGCAAC, the “PBM E-score” value falls from 0.0573 to -0.029.

Going from GACAGCAA to ACTGGTCG, the “PBM E-score” value falls from 0.0356 to -0.125.

Compared with ACGATCTA, CTGGACCC is lower in “PBM E-score” value: -0.106 for the first, -0.294 for the second.

Going from GATCGCAC to ACTCAAGC, the “PBM E-score” value falls from -0.0294 to -0.0344.

First: CGGTAAAG
Second: GAAGAGTC
The “PBM E-score” value of the first is higher: 0.0182 for the first, -0.123 for the second.

Compared with CCCTGATA, GCCTCATA is lower in “PBM E-score” value: -0.0063 for the first, -0.0285 for the second.

Going from ACGAGGGC to AGTAATCC, the “PBM E-score” value rises from -0.14 to 0.102.

First: AGGGCGAG
Second: ATGTTAAA
The “PBM E-score” value of the first is lower: -0.28 for the first, 0.196 for the second.

Going from CATTGCCC to ACGGATGG, the “PBM E-score” value rises from -0.105 to 0.00048.

Going from AAAGATTA to CGCTCTTC, the “PBM E-score” value falls from 0.19 to -0.066.

Compared with ATGAGCGC, GATTCCGA is higher in “PBM E-score” value: 0.0791 for the first, 0.0892 for the second.

Compared with AAACTAGT, GGACAGAA is higher in “PBM E-score” value: 0.0395 for the first, 0.0573 for the second.

First: CAGACTCA
Second: GTACACCA
The “PBM E-score” value of the first is lower: -0.054 for the first, 0.0388 for the second.

First: CATCCCGC
Second: ACTCGCCG
The “PBM E-score” value of the first is lower: -0.0818 for the first, 0.185 for the second.

First: GGACGATA
Second: CGTCGCGC
The “PBM E-score” value of the first is lower: 0.0144 for the first, 0.0641 for the second.

First: ATACGAGG
Second: AGCCGCGA
The “PBM E-score” value of the first is higher: -0.0166 for the first, -0.123 for the second.

Going from GATGCAAC to CGTTCAAC, the “PBM E-score” value rises from -0.1 to 0.061.

Compared with CTTGCTGC, ACACGAAG is higher in “PBM E-score” value: -0.0855 for the first, 0.178 for the second.

Compared with AGGAAAGG, CTAGATCA is higher in “PBM E-score” value: -0.262 for the first, 0.023 for the second.

Compared with ACCGTGAG, TTAAGGAA is higher in “PBM E-score” value: -0.168 for the first, 0.0474 for the second.

Compared with ACGTTATG, GCTTATTA is higher in “PBM E-score” value: 0.219 for the first, 0.232 for the second.

First: CATGGCTA
Second: TCGCCTAA
The “PBM E-score” value of the first is higher: 0.0103 for the first, -0.0472 for the second.

First: CCTAACAG
Second: CGCAGTAC
The “PBM E-score” value of the first is higher: 0.0154 for the first, -0.0611 for the second.

First: GACGGGCA
Second: AACTCGAA
The “PBM E-score” value of the first is lower: -0.12 for the first, 0.0615 for the second.

Going from AGCTCATC to CACTTGGG, the “PBM E-score” value rises from -0.162 to -0.102.

Going from ACCCGGGT to TAACGGAA, the “PBM E-score” value rises from -0.12 to 0.276.

Compared with CCCGAACG, CAAAATGG is higher in “PBM E-score” value: -0.207 for the first, 0.0299 for the second.

Compared with AGCGCTTC, ATGGCAAG is lower in “PBM E-score” value: 0.121 for the first, 0.0932 for the second.

Compared with AGTATCAG, AAGAGCAT is lower in “PBM E-score” value: 0.0631 for the first, 0.0619 for the second.

First: ACATGGTG
Second: ACGGGACC
The “PBM E-score” value of the first is higher: 0.125 for the first, -0.236 for the second.

First: CTCGAGGA
Second: AACCCATG
The “PBM E-score” value of the first is higher: 0.0636 for the first, 0.0214 for the second.

Compared with CTTTGAGA, ATTCCGCA is lower in “PBM E-score” value: 0.0765 for the first, -0.0554 for the second.

First: AAATGTTC
Second: CTAAAAGC
The “PBM E-score” value of the first is higher: 0.00069 for the first, -0.0167 for the second.

Going from CCCCCTTC to CGTTACGC, the “PBM E-score” value rises from -0.392 to 0.0231.

First: CAACATTC
Second: TGCCACAA
The “PBM E-score” value of the first is lower: -0.136 for the first, 0.12 for the second.

First: ATCACATG
Second: ACAACGGA
The “PBM E-score” value of the first is lower: 0.0675 for the first, 0.219 for the second.

Going from AGCTGCCC to AGCGTAGA, the “PBM E-score” value falls from 0.0142 to -0.136.

Going from AATCAGGA to ATAAGTGA, the “PBM E-score” value rises from 0.0679 to 0.217.

Compared with GCCAATAC, GACCCGCC is lower in “PBM E-score” value: -0.00302 for the first, -0.0838 for the second.

Going from CTACATAG to CTGATCCC, the “PBM E-score” value falls from 0.102 to -0.125.

First: ACCACGAC
Second: GCTTGCGA
The “PBM E-score” value of the first is lower: 0.00765 for the first, 0.0537 for the second.

Compared with ATTCATTG, CCCCTCGG is lower in “PBM E-score” value: 0.119 for the first, -0.319 for the second.

Going from AAGCTCAC to AGATGGCT, the “PBM E-score” value rises from -0.114 to 0.021.

Going from AAATTCTG to GGCACGAC, the “PBM E-score” value falls from 0.238 to -0.118.

Going from AAGATTGG to CACAGCTC, the “PBM E-score” value falls from 0.166 to -0.0394.

First: AGAGACTA
Second: CAACTTCC
The “PBM E-score” value of the first is lower: -0.0471 for the first, 0.0121 for the second.

Compared with ACCTAGTG, TCTTGCCA is lower in “PBM E-score” value: 0.0364 for the first, -0.0338 for the second.

First: TCAGGGAA
Second: AGTTTGCA
The “PBM E-score” value of the first is higher: -0.00645 for the first, -0.0725 for the second.

Compared with GCGCCATA, AAATGCAG is higher in “PBM E-score” value: -0.0743 for the first, 0.0779 for the second.

Compared with CCGATCCC, CGTCGTAA is higher in “PBM E-score” value: -0.215 for the first, 0.158 for the second.

Going from AATGGGTC to CACAGATC, the “PBM E-score” value rises from -0.143 to -0.0115.

First: ACCATAAT
Second: CCCAGGCG
The “PBM E-score” value of the first is higher: 0.264 for the first, -0.257 for the second.

Compared with CTCTTCTC, ACTTGCTC is higher in “PBM E-score” value: -0.164 for the first, 0.0278 for the second.

Reference: the supplement of paper PMC3334620
